System: SH-SY5Y cells
Assay: SH-SY5Y neuroblastoma cell toxicity
Assay type: cell-based, human
Settings: 10–100 μM, 48 h incubation, MTT

## COc1cc2c(cc1OC)C(=O)C(CC1CCN(Cc3ccccc3)CC1)C2 (stereo not shown) [Donepezil, reference compound]
  neurotoxicity / cytotoxicity on SH-SY5Y cells: no cytotoxicity

Source: PMC10976477 (RSC Advances, 2024)
